{"source": "the supplement of paper PMC8104966", "note": "Some of the results follow. Repeats in this data set agree poorly, so a single value says little.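 U2OS cells carrying ACE2 were mixed with U2OS cells carrying full-length spike, and fusion was scored by imaging as the share of nuclei showing both cell types' fluorescent markers. A compound counts as an inhibitory hit when it is non-toxic and its fusion z-score falls below -3, meaning more than three standard deviations below the plate's DMSO wells.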", "data": [{"tested_on": "U2OS ACE2 x SARS-CoV-2 spike co-culture", "experiment": "cell-cell fusion (fraction fused) z-score vs plate DMSO control; higher = more fusion", "details": "30 µM; 5 h; toxicity class: non-toxic, passed QC", "values": [{"smiles": "CC(=O)OCC(=O)[C@@]1(O)CCC2C3CCC4=CC(=O)CC[C@]4(C)C3C(=O)C[C@@]21C", "note": "(some centres not stated)", "cell-cell fusion (z-score)": "inactive: 1.21"}, {"smiles": "COc1ccc(-c2coc3c(OC)c(OC)cc(O)c3c2=O)cc1", "cell-cell fusion (z-score)": "inactive: 1.26"}, {"smiles": "CS(=O)(=O)Nc1ccc([N+](=O)[O-])cc1Oc1ccccc1", "cell-cell fusion (z-score)": "inactive: 3.4"}, {"smiles": "Cc1nc(NC(=O)N2CCC[C@H]2C(N)=O)sc1-c1ccnc(C(C)(C)C(F)(F)F)c1", "note": "[Alpelisib]", "cell-cell fusion (z-score)": "inactive: 1.16"}, {"smiles": "CC(CN1c2ccccc2Sc2ccccc21)N(C)C.Cl", "note": "(configuration not stated)", "cell-cell fusion (z-score)": "inactive: -1.66"}, {"smiles": "CC(CN1c2ccccc2Sc2ccccc21)N(C)C.Cl", "note": "(configuration not stated) [Promethazine hydrochloride]", "cell-cell fusion (z-score)": "inactive: 3.27"}, {"smiles": "CC(C)(C)c1nc(-c2cccc(NS(=O)(=O)c3c(F)cccc3F)c2F)c(-c2ccnc(N)n2)s1", "cell-cell fusion (z-score)": "inactive: 0.628"}, {"smiles": "CN1CC\\C(CC1)=C1\\c2ncc(C=O)n2CCc2ccccc12", "note": "[Alcaftadine]", "cell-cell fusion (z-score)": "inactive: 1.9"}, {"smiles": "CC#C[C@]1(O)CCC2C3CCC4=CC(=O)CCC4=C3[C@@H](c3ccc(N(C)C)cc3)C[C@@]21C", "note": "(some centres not stated)", "cell-cell fusion (z-score)": "active: -4.1"}, {"smiles": "CC(=O)OC(C)OC(=O)C(C)c1ccc(-c2ccccc2)c(F)c1", "note": "(configuration not stated) [Flurbiprofen Axetil]", "cell-cell fusion (z-score)": "inactive: -0.126"}, {"smiles": "O=C(Nc1ccc(-c2ccnc(Nc3ccc(N4CCOCC4)cc3)n2)cc1)[C@@H]1CCCN1", "cell-cell fusion (z-score)": "inactive: 1.48"}, {"smiles": "CCCCCCCC/C=C\\CCCCCCCC(=O)[O-].[NH3+]CCO", "cell-cell fusion (z-score)": "inactive: 1.53"}, {"smiles": "COc1ccc(C(=O)O)c(O)c1OC", "cell-cell fusion (z-score)": "inactive: 1.38"}, {"smiles": "CC(=O)OCC(OC(C)=O)C(OC(C)=O)C(OC(C)=O)C(OC(C)=O)C(COC(C)=O)OC(C)=O", "note": "(configuration not stated)", "cell-cell fusion (z-score)": "inactive: 1.78"}, {"smiles": "C[C@]12C=CC(=O)C=C1CCC1C3C[C@@H](O)[C@](O)(C(=O)CO)[C@@]3(C)C[C@H](O)[C@@]12F", "note": "(some centres not stated)", "cell-cell fusion (z-score)": "inactive: 0.871"}, {"smiles": "Nc1nc(=O)c2c([nH]1)NC=C(CNc1ccc(C(=O)N[C@H](CCC(=O)O)C(=O)O)cc1)N2", "cell-cell fusion (z-score)": "inactive: 2.3"}, {"smiles": "CN[C@H](CC(C)C)C(=O)N[C@H]1C(=O)N[C@@H](CC(N)=O)C(=O)N[C@H]2C(=O)N[C@H]3C(=O)N[C@H](C(=O)N[C@H](C(=O)O)c4cc(O)cc(O)c4-c4cc3ccc4O)[C@H](O)c3ccc(c(Cl)c3)Oc3cc2cc(c3O[C@@H]2O[C@H](CO)[C@@H](O)[C@H](O)[C@H]2O[C@H]2C[C@](C)(N)[C@H](O)[C@H](C)O2)Oc2ccc(cc2Cl)[C@H]1O.Cl", "note": "[Vancomycin hydrochloride]", "cell-cell fusion (z-score)": "inactive: 3.22"}]}]}
